Experimental data published in publication PMC12436625.
These are yes or no findings as the source states them, for the method shown. In cells and extracts the contact can be indirect. Some binding calls cover weakened binding; strength is not graded here.

The chains behind the UniProt entries cited, without tags or fusion partners.
UniProt P15337: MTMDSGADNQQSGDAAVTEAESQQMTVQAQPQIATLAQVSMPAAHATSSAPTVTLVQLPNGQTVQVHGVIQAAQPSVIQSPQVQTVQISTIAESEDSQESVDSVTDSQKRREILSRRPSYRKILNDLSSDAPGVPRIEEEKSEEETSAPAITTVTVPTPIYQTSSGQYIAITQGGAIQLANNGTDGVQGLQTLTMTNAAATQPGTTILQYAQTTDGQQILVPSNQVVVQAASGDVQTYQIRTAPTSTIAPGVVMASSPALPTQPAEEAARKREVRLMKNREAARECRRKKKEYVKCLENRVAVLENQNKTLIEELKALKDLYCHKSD
UniProt Q8CHI5: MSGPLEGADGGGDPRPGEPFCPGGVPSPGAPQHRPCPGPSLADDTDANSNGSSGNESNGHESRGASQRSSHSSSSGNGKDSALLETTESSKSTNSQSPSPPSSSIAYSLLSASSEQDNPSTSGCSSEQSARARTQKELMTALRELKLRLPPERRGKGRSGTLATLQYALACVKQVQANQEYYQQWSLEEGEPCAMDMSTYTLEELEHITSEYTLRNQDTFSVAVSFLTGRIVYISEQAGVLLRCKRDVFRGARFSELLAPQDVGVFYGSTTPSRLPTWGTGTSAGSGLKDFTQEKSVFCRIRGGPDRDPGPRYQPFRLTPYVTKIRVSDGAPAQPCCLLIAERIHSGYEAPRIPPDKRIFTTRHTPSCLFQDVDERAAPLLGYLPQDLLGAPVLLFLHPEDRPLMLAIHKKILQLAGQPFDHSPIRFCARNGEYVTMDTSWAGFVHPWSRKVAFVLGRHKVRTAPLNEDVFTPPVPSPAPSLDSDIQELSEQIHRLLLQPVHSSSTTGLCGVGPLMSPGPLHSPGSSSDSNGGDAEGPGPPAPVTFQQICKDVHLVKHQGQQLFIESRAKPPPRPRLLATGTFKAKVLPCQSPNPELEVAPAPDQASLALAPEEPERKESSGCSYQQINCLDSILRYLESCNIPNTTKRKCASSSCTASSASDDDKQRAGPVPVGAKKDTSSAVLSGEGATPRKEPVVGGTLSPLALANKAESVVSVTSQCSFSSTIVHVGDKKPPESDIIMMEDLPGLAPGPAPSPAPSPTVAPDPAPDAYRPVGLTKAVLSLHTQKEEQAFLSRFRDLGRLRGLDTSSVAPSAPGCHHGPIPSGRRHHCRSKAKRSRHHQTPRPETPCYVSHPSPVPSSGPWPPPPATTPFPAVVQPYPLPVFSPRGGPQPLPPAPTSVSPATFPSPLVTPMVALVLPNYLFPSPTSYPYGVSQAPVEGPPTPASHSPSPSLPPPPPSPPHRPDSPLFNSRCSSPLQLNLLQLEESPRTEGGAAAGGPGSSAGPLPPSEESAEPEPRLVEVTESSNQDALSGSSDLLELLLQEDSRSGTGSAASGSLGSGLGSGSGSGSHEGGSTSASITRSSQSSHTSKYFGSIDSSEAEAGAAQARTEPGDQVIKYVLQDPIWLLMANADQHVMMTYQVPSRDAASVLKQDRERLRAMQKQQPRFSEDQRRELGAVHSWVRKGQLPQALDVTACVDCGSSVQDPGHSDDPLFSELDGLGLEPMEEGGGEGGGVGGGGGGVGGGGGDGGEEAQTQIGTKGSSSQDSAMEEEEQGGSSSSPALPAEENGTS
UniProt Q9Z301: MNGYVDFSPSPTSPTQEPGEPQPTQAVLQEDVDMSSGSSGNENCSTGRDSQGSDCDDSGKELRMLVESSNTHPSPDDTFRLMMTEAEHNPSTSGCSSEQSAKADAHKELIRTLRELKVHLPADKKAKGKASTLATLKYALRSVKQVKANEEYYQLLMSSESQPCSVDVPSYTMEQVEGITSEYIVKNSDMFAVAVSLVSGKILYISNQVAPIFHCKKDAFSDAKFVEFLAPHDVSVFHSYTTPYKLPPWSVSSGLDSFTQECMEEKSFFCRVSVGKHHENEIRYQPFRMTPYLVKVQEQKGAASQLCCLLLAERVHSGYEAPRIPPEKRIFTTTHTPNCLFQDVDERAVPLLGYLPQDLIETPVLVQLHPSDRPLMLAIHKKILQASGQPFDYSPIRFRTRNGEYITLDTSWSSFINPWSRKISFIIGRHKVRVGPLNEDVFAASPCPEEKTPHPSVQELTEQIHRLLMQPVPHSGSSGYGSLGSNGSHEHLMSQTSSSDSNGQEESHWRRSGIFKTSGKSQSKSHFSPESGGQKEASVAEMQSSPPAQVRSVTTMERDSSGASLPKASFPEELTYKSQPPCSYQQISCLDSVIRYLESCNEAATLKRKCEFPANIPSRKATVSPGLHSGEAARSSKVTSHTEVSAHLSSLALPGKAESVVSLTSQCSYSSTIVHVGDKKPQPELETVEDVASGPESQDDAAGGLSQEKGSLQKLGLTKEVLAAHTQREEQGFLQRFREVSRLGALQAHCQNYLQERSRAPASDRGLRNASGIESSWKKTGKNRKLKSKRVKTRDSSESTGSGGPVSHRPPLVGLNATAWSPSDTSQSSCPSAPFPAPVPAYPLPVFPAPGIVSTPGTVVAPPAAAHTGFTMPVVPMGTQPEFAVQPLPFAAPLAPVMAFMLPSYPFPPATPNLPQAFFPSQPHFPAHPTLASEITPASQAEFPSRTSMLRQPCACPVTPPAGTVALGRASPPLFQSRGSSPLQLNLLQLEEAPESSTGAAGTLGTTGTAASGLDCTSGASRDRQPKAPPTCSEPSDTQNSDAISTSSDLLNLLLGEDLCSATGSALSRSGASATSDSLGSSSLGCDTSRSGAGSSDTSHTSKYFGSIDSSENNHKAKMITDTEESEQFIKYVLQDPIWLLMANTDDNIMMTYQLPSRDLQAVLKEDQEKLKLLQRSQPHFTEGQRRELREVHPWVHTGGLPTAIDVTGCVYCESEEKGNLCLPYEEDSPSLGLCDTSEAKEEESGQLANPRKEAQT

Target: cyclic AMP-responsive element-binding protein (CREB) (rat (endogenous in hippocampal CA1 tissue)) (UniProt P15337)
Experiment: co-IP; lysates of the hippocampal CA1 region of normal adult rats, extracted at ZT02; buffer 50 mM Tris-HCl pH 8.0, 150 mM NaCl, 5 mM EDTA, 0.5% NP-40; pre-cleared with protein A/G-agarose; antibodies against PER1, PER2, CREB or IgG as a control, 4 °C overnight; immunoblot

| Substance | binding |
| --- | --- |
| PER1 (from UniProt Q8CHI5 1-1293) | binds |
| Period (PER)2 (from UniProt Q9Z301 1-1257) | binds |
